The full ranking holds about 33,000 sequences; the median of “E-score (-0.5 to 0.5)” is about -0.0014, and the highest 2% start at about 0.25. The list shows a part of the results.

This assay addresses T1, Cad1 (UniProt P24813).
T1 sequence: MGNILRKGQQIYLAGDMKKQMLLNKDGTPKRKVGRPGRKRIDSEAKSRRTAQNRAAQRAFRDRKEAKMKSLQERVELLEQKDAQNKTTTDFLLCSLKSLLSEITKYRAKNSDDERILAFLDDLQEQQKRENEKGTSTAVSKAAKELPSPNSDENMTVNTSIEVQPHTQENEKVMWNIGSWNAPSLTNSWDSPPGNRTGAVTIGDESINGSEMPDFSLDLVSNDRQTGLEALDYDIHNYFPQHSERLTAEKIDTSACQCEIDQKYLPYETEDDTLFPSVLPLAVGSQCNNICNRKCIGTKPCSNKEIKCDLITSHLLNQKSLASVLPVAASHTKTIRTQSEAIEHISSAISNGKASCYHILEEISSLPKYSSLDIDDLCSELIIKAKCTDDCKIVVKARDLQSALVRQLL
Nature of the assay: PBM E-score (8-mer binding enrichment) (E-score (-0.5 to 0.5)); higher = stronger / more preferred TF binding. Conditions: protein concentration: 100 nM; construct: GST-full length. Here is the method:
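Universal 'all 10-mer' protein binding microarrays (Agilent AMADID 015681) probed with GST-tagged S. cerevisiae TFs (full-length or DBD) made by in vitro transcription/translation (PURExpress), about 100-200 nM. Bound TF was detected with fluorescent anti-GST. Each ungapped 8-mer (which stands for itself and its reverse complement) is scored by the PBM enrichment score (E-score), a modified Wilcoxon-Mann-Whitney statistic from -0.5 to +0.5, computed with the Universal PBM Analysis Suite. Scale: above 0.35 generally sequence-specific binding.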
For the sequence AGGAATCG, the “PBM E-score” value is 0.162.

Consider CCGAGCGG, for which the “PBM E-score” value was -0.139.

On to AGCCTCAG, for which the “PBM E-score” value was -0.0332.

In the case of GCACTAAA, the “PBM E-score” value was found to be 0.191.

Consider GGCGAATA, for which the “PBM E-score” value came out at 0.0973.

As to GTTAACGA, the “PBM E-score” value came to 0.00451.

With ACTGGACG, the “PBM E-score” value is -0.0529.

As for CAGCTGGA, the “PBM E-score” value stood at 0.171.

For ACCAGAGA, the “PBM E-score” value was 0.0407.

As for AGATTGTC, the “PBM E-score” value was -0.0366.

For the sequence GGAGTCAA, the “PBM E-score” value is -0.136.

For the sequence AAGGCTCC, the “PBM E-score” value is -0.36.

For CCGACCCC, the “PBM E-score” value was -0.372.

For the sequence AACGAACG, the “PBM E-score” value was 0.0769.

For the sequence CTTGTCTA, the “PBM E-score” value was 0.00616.

Regarding CTCTGCGA, the “PBM E-score” value is 0.0717.

As to AAATACGT, the “PBM E-score” value was 0.135.

In the case of CTCGTTAC, the “PBM E-score” value is -0.044.

Regarding TATGTCGA, the “PBM E-score” value is 0.127.

As for CTTCTTGA, the “PBM E-score” value is -0.0249.

Regarding CTTTACAA, the “PBM E-score” value is -0.0302.

Regarding CTATCACC, the “PBM E-score” value is -0.148.

For the sequence AGATCCCA, the “PBM E-score” value was -0.098.

For the sequence AGACGCTC, the “PBM E-score” value is -0.23.

As to CCTGACGC, the “PBM E-score” value was -0.122.

On to AAAGGTTG, for which the “PBM E-score” value was -0.158.

Consider CAAAAATG, for which the “PBM E-score” value is -0.0404.

For the sequence AGGACAGG, the “PBM E-score” value is -0.16.

Regarding TAATGTCA, the “PBM E-score” value worked out at 0.105.

GAAGATAC: the “PBM E-score” value came out at 0.11.

CCCACCCA: the “PBM E-score” value is -0.0824.

Consider AACTAGGA, for which the “PBM E-score” value was 0.0724.

For CTATTTGA, the “PBM E-score” value came to 0.0972.

AGAACTTC: the “PBM E-score” value was -0.11.

As for AACTATGG, the “PBM E-score” value is -0.177.

GCTAGGCC: the “PBM E-score” value was -0.138.

AGTATTAT: the “PBM E-score” value is 0.0398.

With GACAGGTC, the “PBM E-score” value is -0.186.

Regarding GCAGGCGA, the “PBM E-score” value is -0.051.

Take CGGACTTA: the “PBM E-score” value was -0.0525.

For the sequence CAGCGTTA, the “PBM E-score” value was found to be 0.0612.

As for TAAATAAA, the “PBM E-score” value amounted to 0.125.

On to AAGGGCGC, for which the “PBM E-score” value is -0.144.

As to CCGGCCAC, the “PBM E-score” value was -0.172.

Regarding AGGTATGC, the “PBM E-score” value turned out to be 0.0201.

With ACTAAGTA, the “PBM E-score” value came out at 0.0166.

In the case of ATAGTGCG, the “PBM E-score” value was found to be 0.14.

Turning to AACACGGA, the “PBM E-score” value is 0.147.

As for CATCTACC, the “PBM E-score” value was 0.054.

Take ACGCGGGG: the “PBM E-score” value was determined as 0.0463.

Regarding CACTGCTA, the “PBM E-score” value is -0.0446.

Consider GGCACGCA, for which the “PBM E-score” value is -0.0233.

CCCCTAGC: the “PBM E-score” value was -0.241.

As to ACAGTAAC, the “PBM E-score” value came to 0.0984.

Consider CAATCCTA, for which the “PBM E-score” value was -0.015.

Take AGTCGGGG: the “PBM E-score” value is -0.177.

Consider AGACCTAG, for which the “PBM E-score” value was -0.141.

Consider AACTAGTG, for which the “PBM E-score” value was -0.0571.

In the case of CGTCCGAG, the “PBM E-score” value turned out to be 0.0847.

For the sequence GATAACCA, the “PBM E-score” value was 0.0873.

For AACAATCG, the “PBM E-score” value was determined as 0.0166.

In the case of CGGTCTAC, the “PBM E-score” value is -0.157.

CGTTAGTA: the “PBM E-score” value was 0.289.

As for GGCTGACC, the “PBM E-score” value is -0.121.

For the sequence ATAGGCGA, the “PBM E-score” value is -0.114.

As to TCGAGCAA, the “PBM E-score” value worked out at 0.176.

As to AGGACATG, the “PBM E-score” value worked out at 0.0267.

Turning to CGACGAGC, the “PBM E-score” value is -0.0755.

Take ACTGGGGC: the “PBM E-score” value is -0.267.

For CCTTAAGC, the “PBM E-score” value is -0.0856.

In the case of TCGGAGAA, the “PBM E-score” value is -0.148.

Turning to GACTGCGC, the “PBM E-score” value was -0.0924.

Turning to AACCCGGC, the “PBM E-score” value came to 0.0289.

In the case of AGTCGGGA, the “PBM E-score” value is -0.077.

For the sequence CGGATGAA, the “PBM E-score” value was found to be 0.213.

CTTTAAAC: the “PBM E-score” value was -0.176.

Turning to GCTCTTCA, the “PBM E-score” value was -0.172.

In the case of CATACTCA, the “PBM E-score” value is -0.0553.

Consider TAGGGGCA, for which the “PBM E-score” value was -0.109.

Consider ATAAAACA, for which the “PBM E-score” value worked out at 0.0107.

On to ACCTCGTA, for which the “PBM E-score” value stood at 0.0319.

As for CGCCACAC, the “PBM E-score” value was 0.0228.

Consider CCATAGCA, for which the “PBM E-score” value is -0.118.

Turning to CCCTCTGC, the “PBM E-score” value was -0.3.

In the case of CCGATACA, the “PBM E-score” value is -0.0059.

For the sequence CCATCTTA, the “PBM E-score” value was -0.117.

As for CACAGTAG, the “PBM E-score” value was -0.0343.

CGAGGGAG: the “PBM E-score” value was -0.12.

As to ACTAGTTG, the “PBM E-score” value was -0.0546.

As for GTACAGAC, the “PBM E-score” value worked out at 0.0229.

For AATCGGTC, the “PBM E-score” value was determined as 0.0815.

In the case of AATGGCGG, the “PBM E-score” value is -0.109.

CTCAAACC: the “PBM E-score” value is -0.0865.

With ATGCTGCG, the “PBM E-score” value worked out at 0.0156.

With GATAACGA, the “PBM E-score” value was 0.0737.

For the sequence GACTCGCA, the “PBM E-score” value was -0.0793.

On to AAGTCTGG, for which the “PBM E-score” value was 0.105.

Regarding ATCATATG, the “PBM E-score” value was found to be 0.133.

In the case of CAGCAGCA, the “PBM E-score” value was -0.0517.

In the case of AGTCTGCA, the “PBM E-score” value was -0.235.

For CCCTCTAG, the “PBM E-score” value is -0.222.

Consider CACAATGA, for which the “PBM E-score” value was determined as 0.0199.

As for CAAAATTG, the “PBM E-score” value is 0.131.

On to ATGTAGAG, for which the “PBM E-score” value is -0.112.

As to ATCCATCG, the “PBM E-score” value is -0.0791.

For the sequence CCCATGAA, the “PBM E-score” value was -0.0574.

In the case of ATGCAGAC, the “PBM E-score” value was determined as 0.153.

Turning to TCAGGCAA, the “PBM E-score” value is -0.04.

In the case of AACAAATG, the “PBM E-score” value amounted to 0.0272.

CCTTTTAC: the “PBM E-score” value was -0.0655.

These data come from the supplement of paper PMC3334620.
